Source: PubChem BioAssay AID504444 (National Center for Advancing Translational Sciences (NCATS), 2011)
Where “and” joins values, the source holds several entries; their conditions need not be identical. Identical values can stand only once. Screen size: about 360,000 compounds; about 7,500 (2.1%) were called active. Inconclusive means that the source gave no clear call. Such entries were picked first, then a sample of the others. Calls come from the whole dose curve; as a rule, active = well fitted inhibition curve with a large enough effect; inconclusive = small, poorly fitted or top-dose-only effect, or effect the other way; inactive = flat fitted curve, though single readings scatter. Where the call is inconclusive, the potency comes from a doubtful curve fit. Some structures have more than one record in an assay (separate samples or runs), and their calls can disagree.

assay: Nrf2 qHTS screen for inhibitors; settings: A549 ARE-Fluc reporter, luciferase luminescence, 18-24 h; activity change, negative = inhibition: at 46 µM (top of the series); note: nearly all actives have a fitted effect of over 60% in size
Outline: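 A549 ARE_Fluc cells, 5000/well, 5% FBS OPTI-MEM; compounds in dose-response, 18-24 h at 37 °C/5% CO2; CellTiter-Fluor viability read (Ex 405/Em 525), then BugLite luciferase luminescence = Nrf2 activity.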
% is set by controls: 0 for no effect and ±100 for the full control effect; potency is the fitted concentration of half-maximal effect.

Row | SMILES | Potency | activity change, negative = inhibition
1 | O=C(CNC(=O)c1cccs1)c1ccc(Br)cc1 | inconclusive: 16.4 µM [activator, partial curve, poor fit] | –
2 | CC/C(C)=N/Nc1ccc(S(=O)(=O)N2CCCC2)cc1[N+](=O)[O-] | inconclusive: 20.6 µM [falling, partial curve, poor fit] | –
3 | O=S(=O)(c1ccc(NC(=S)NCc2cccnc2)cc1)N1CCCCC1 | active: 23.1 µM | –
4 | CCCCCc1cc(=O)oc2c(C(CCN3CCCCC3)c3ccc4c(c3)OCO4)c(OC)cc(OC)c12 (centres undefined) | – | inactive: 13.8%
5 | COc1ccc(C(=O)Nc2cnn(Cc3c(F)cccc3Cl)c2)cc1OC | inconclusive: 29.1 µM [falling, single point] | –
6 | O=C(O)c1ccc(NC(=O)c2cccc(C(=O)Nc3ccc(C(=O)O)cc3)n2)cc1 | inconclusive: 3.26 µM [falling, full curve] | –
7 | COC(=O)C1=C(C(=O)c2ccccc2)C(c2ccccc2)n2nnnc2N1 (centres undefined) | – | inactive: -12.7%
8 | COc1cccc(N=Nc2c(=O)[nH]n3c(=O)c4c([nH]c23)CCC4)c1 | inconclusive: 29.1 µM [activator, partial curve, poor fit] | –
9 | Cc1onc(-c2c(Cl)cccc2Cl)c1C(=O)NC(=S)N1CCOCC1 | inconclusive: 29.1 µM [falling, single point] | –
10 | CCCc1ccc(-c2cc(C(=O)Nc3ccc([N+](=O)[O-])cn3)c3ccccc3n2)cc1 | inconclusive: 32.6 µM [activator, single point] | –
11 | O=C(CCc1nc2ccccc2c(=O)[nH]1)NCc1cccc(Cl)c1 | inconclusive: 25.9 µM [falling, single point] | –
12 | O=C(CS(=O)CC(=O)N(c1ccccc1)C(C(=O)NC1CCCC1)c1cccs1)Nc1ccc(F)cc1 (centres undefined) | inconclusive: 0.92 µM [falling, partial curve, poor fit] | –
13 | O=C(c1cc2sccc2n1Cc1ccc(F)cc1)N1CCN(c2nc3ccccc3s2)CC1 | inconclusive: 3.26 µM [falling, full curve] | –
14 | O=c1c2ccccc2c(C=NCc2ccccn2)c(O)n1-c1ccccc1 | – | inactive: -3.78%
15 | CCCCOc1cc(C(=O)NCCN(CC)CC)c2ccccc2n1 | active: 9.2 µM | –
16 | Cc1ccc(-c2csc(N3CCC[C@@H]3C(=O)NCCn3c(-c4ccncc4)nc4ccccc43)n2)cc1 | inconclusive: 14.6 µM [falling, single point] | –
17 | CN(C(=O)COC(=O)C12CC3CC(CC(Cl)(C3)C1)C2)c1ccccc1 | inconclusive: 7.31 µM [activator, partial curve, poor fit] | –
18 | CCN(Cc1nc2cc(Cl)ccc2c(=O)[nH]1)C(=O)COc1ccccc1Cc1ccccc1 | inconclusive: 18.4 µM [falling, partial curve, poor fit] | –
19 | COc1ccccc1NS(=O)(=O)c1ccc(NN=C2CCCC2)c([N+](=O)[O-])c1 | inconclusive: 23.1 µM [falling, partial curve, poor fit] | –
20 | ONC(=Nc1ccc(Cl)cc1)c1ccccc1Cl | inconclusive: 14.6 µM [falling, partial curve, poor fit] | –
21 | COc1ccc(CCNC(=O)/C=C/c2ccc(S(=O)(=O)N3CCOCC3)cc2)cc1 | inconclusive: 7.31 µM [falling, partial curve, poor fit] | –
22 | C/C(=N\NC(=O)CN(c1ccc(Oc2ccccc2)cc1)S(C)(=O)=O)C(C)(C)C | – | inactive: 13.8%

Row | SMILES | Potency | activity change, negative = inhibition
23 | Cc1ccc(NC(=O)/C=C/c2ccc(Cl)cc2)nc1 | inconclusive: 5.17 µM [activator, partial curve, poor fit] | –
24 | CCN(CC(=O)NC(=O)NC1CCCCC1)Cc1nc2ccccc2c(=O)[nH]1 | inconclusive: 3.66 µM [activator, single point] | –
25 | CC(=O)c1ccc(NC(=O)COC(=O)c2ccccc2N=Nc2ccc(N(C)C)cc2)cc1 | inconclusive: 29.1 µM [activator, single point] | –
26 | O=C(Nc1ccccc1)N1CCCN(c2ccc(C(F)(F)F)cc2[N+](=O)[O-])CC1 | inconclusive: 29.1 µM [falling, single point] | –
27 | C#CCOCCOCCOCCNc1nc(N2CCN(C(=O)[C@H](CCC(=O)O)n3cc(CN)nn3)CC2)nc(N2CCN(C(=O)[C@H](CCC(=O)O)n3cc([C@@H](N)[C@H](C)CC)nn3)CC2)n1 | – | inactive: 7.64%
28 | [O-][n+]1c(/C=C/c2ccccc2)ccc2ccccc21 | inconclusive: 3.26 µM [activator, single point] | –
29 | Cc1ccc(-c2nnc(-c3ccccc3)o2)cc1 | inconclusive: 8.2 µM [activator, partial curve] | –
30 | COc1ccc2cc3c(N)nn(C(=O)c4ccc(OC)c(OC)c4)c3nc2c1 | inconclusive: 4.11 µM [activator, partial curve, poor fit] | –
31 | COC(=O)c1sc(NC(=O)COc2ccccc2OC)nc1C | inconclusive: 0.366 µM [falling, full curve, poor fit] | –
32 | O=C1OC(Nc2cc(Br)cc3cccnc23)c2ccccc21 (centres undefined) | inconclusive: 13 µM [activator, partial curve, poor fit] | –
33 | COc1cccc(-c2nn(C)c3sc(C(=O)N4CCN(c5ccccn5)CC4)cc23)c1 | inconclusive: 20.6 µM [falling, single point] | –
34 | CCCc1cc(=O)oc2cc(C)cc(OC(C)C(=O)NCCCn3ccnc3)c12 (centres undefined) | inconclusive: 18.4 µM [activator, partial curve, poor fit] | –
35 | O=C(CNCc1ccc(Cl)cc1)Nc1cc(S(=O)(=O)N2CCCC2)ccc1Cl | inconclusive: 16.4 µM [falling, single point] | –
36 | O=C(Nc1nncs1)C1c2ccccc2Oc2ccccc21 | inconclusive: 14.6 µM [falling, partial curve] | –
37 | CN(CC(=O)Nc1ccccc1)CC(=O)Nc1ccccc1Cl | inconclusive: 11.6 µM [activator, partial curve] | –
38 | CC(=O)c1cccc(NS(=O)(=O)c2ccc(N/C=C\C(=O)c3ccc(F)cc3)cc2)c1 | active: 25.9 µM | –
39 | N=c1c2c(ncn1CCCO)Oc1c(ccc3ccccc13)C2c1ccccc1 (centres undefined) | – | inactive: -14.6%
40 | O=C1c2ccccc2C(=O)N1c1ccccn1 | inactive and inconclusive: 20.6 µM [activator, single point] | –
41 | COc1cccc(-c2nc(NC3CCCC3)c3ccccc3n2)c1O | inconclusive: 29.1 µM [falling, single point] | –
42 | COC(=O)c1ccc2nc(NC(=O)C(C)(C)C)sc2c1 | active: 4.11 µM | –
43 | Cc1ccc(CNC(=O)CN2C(=O)CSc3ccc(S(=O)(=O)N4CCC(C)CC4)cc32)cc1 | inconclusive: 29.1 µM [falling, single point] | –
44 | COc1cc(SC)ccc1C(=O)Nc1cc(C)c(OCC(=O)N2CCOCC2)c(C)c1 | inconclusive: 29.1 µM [falling, single point] | –

Row | SMILES | Potency | activity change, negative = inhibition
45 | COCc1nc2oc3ccc(C)cc3c(=O)c2cc1C(=O)OC | inconclusive: 1.46 µM [activator, full curve] | –
46 | COc1ccccc1C(=O)Nc1cccc(NC(=O)c2ccccc2C)c1 | inconclusive: 14.6 µM [falling, partial curve, poor fit] | –
47 | COc1ccc(NC(=O)c2cc3c(=O)n4ccccc4nc3n2C)cc1OC | inconclusive: 0.259 µM [falling, full curve, poor fit] | –
48 | Cc1ccn2c(NC(C)(C)C)c(-c3cccs3)nc2c1 | – | inactive: -8.1%
49 | CN(C)c1ccc(NC2=C(Cl)C(=O)c3ccccc3C2=O)cc1 | inconclusive: 25.9 µM [falling, partial curve, poor fit] | –
50 | Cc1nn(-c2ccccc2)cc1/C=N/O | – | inactive: 23.8%
51 | Cc1cc[n+](C2=C([O-])c3ccccc3C(=O)/C2=N\S(=O)(=O)c2cccs2)cc1C | inconclusive: 25.9 µM [falling, partial curve, poor fit] | –
52 | COCCNC(=O)C1CCN(C(=O)c2cc3sccc3n2Cc2ccc(F)cc2)CC1 | inconclusive: 29.1 µM [falling, single point] | –
53 | C(#Cc1c(-c2ccsc2)sc2ccccc12)c1ccsc1 | inconclusive: 14.6 µM [activator, single point] | –
54 | O=C(NCc1cccnc1)c1nn(-c2ccc(F)cc2)nc1CO | – | inactive: 25.2%
55 | O=C(CCNS(=O)(=O)c1ccccc1)N1CCCCCC1 | inconclusive: 5.8 µM [activator, partial curve, poor fit] | –
56 | CCc1ccc(N2CC(C(=O)Nc3ccc(C)c(S(=O)(=O)N4CCOCC4)c3)CC2=O)cc1 (centres undefined) | inconclusive: 29.1 µM [falling, single point] | –
57 | COc1ccc(C(=O)Nc2cccc(-c3cnc4ccccc4n3)c2)cc1 | – | inactive: 1.49%
58 | COC(=O)c1ccccc1NC(=O)Nc1ccc(C)cn1 | inconclusive: 18.4 µM [activator, single point] | –
59 | COc1cc(C2C(C#N)=C(N)Oc3cc(N)ccc32)cc(OC)c1OC (centres undefined) | inconclusive: 29.1 µM [activator, single point] | –
60 | CC1=CC(=C(C#N)C#N)C=C(C)N1CCC(C)C | inconclusive: 2.31 µM [falling, single point] | –
61 | Cc1ccc(C)c(N2CCN(CCCNC(=O)Cn3cccc3C(=O)c3ccccc3)CC2)c1 | – | inactive: -9.4%
62 | N=c1c2c(-c3ccccc3)c(-c3ccccc3)n(Cc3ccco3)c2ncn1CCO | inconclusive: 5.17 µM [falling, partial curve] | –
63 | O=C(O)[C@H]1C[C@@H](CP(=O)(O)O)CCN1 | – | inactive: 1.63%
64 | COC(=O)c1cccc2nc3c(C(C)O)cccc3nc12 (centres undefined) | inconclusive: 1.64 µM [falling, full curve] | –
